Here are results for one molecule from paper PMC7401386.

Results are given in words; binding and its absence hold for the method and conditions named. Binding seen in cells or lysates may run through a third protein. Tags and fused reporters may be left off the sequences shown.

This assay concerns the target T1, Calcium- and integrin-binding protein 1, PA-tagged (mouse) (UniProt Q9Z0F4).
T1 sequence: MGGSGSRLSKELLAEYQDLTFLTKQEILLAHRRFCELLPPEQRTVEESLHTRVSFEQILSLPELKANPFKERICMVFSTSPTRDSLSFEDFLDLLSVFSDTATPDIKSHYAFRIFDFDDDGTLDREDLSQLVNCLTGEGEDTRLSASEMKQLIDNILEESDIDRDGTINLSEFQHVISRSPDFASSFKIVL
The experiment in a line: co-IP; co-expression in HEK293T cells; immunoprecipitation with rat anti-PA antibody; immunoblot with anti-PA and anti-FLAG.

B1: CIB4, FLAG-tagged (protein, UniProt Q9D9N5 1-185)
chain: MGQCLRYQMQWEDLEEYQALTFLTRNEILCIHDTFLKLCPSGKHYKEATLTMDQVSSLPALRVNPFRDRICRVFSHDNVFSFEDVLGMASVFSEQACPSLKIEYAFRIYDFNENGFIDEEDLEEIVLRLLKSDDASEDLLMDVMHHVLSESDLDNDSMLSFSEFEHAMAKSPDFMNSFRIHFWGC
B1: the binding entry is “no binding”.
